This is one part of the list. Most entries show no effect beyond the scatter of the controls.
The targets below were run with CN[C@@H]1C[C@H]2O[C@@](C)([C@@H]1OC)n1c3ccccc3c3c4c(c5c6ccccc6n2c5c31)C(=O)NC4 [staurosporine] (assay: log2 fold change of tryptic peptide abundance, ligand vs vehicle (limited proteolysis) (log2 ratio); higher = more trypsin-susceptible (destabilized)). Details: ligand concentration: 20 uM; sample: K562 cleared lysate; digestion: 4 min, 22 C (HT-PELSA RT4min, Orbitrap Astral).

Chains of the proteins cited; added tags and fusions are not shown. Lines headed by an entry give the natural chain unless they say otherwise; changes in a name come on top.
UniProt Q7L2J0: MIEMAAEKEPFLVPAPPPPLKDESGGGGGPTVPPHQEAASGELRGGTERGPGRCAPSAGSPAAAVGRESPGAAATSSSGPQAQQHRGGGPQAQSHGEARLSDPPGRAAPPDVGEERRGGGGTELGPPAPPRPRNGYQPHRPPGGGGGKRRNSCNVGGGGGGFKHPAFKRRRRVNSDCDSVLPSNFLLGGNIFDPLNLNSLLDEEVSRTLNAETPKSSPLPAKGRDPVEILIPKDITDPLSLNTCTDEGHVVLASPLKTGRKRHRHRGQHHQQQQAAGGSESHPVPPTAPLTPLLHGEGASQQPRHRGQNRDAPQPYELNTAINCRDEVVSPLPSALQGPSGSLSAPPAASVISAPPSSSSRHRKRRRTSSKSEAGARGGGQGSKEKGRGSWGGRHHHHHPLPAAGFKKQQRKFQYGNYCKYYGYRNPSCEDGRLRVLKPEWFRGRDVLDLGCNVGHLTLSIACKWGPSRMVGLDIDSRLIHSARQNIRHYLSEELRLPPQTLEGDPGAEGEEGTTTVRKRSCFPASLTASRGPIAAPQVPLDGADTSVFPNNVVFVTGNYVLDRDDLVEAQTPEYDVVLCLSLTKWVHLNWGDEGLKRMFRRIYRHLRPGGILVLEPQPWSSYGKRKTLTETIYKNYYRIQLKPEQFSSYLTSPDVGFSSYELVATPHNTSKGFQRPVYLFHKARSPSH
UniProt Q86VM9: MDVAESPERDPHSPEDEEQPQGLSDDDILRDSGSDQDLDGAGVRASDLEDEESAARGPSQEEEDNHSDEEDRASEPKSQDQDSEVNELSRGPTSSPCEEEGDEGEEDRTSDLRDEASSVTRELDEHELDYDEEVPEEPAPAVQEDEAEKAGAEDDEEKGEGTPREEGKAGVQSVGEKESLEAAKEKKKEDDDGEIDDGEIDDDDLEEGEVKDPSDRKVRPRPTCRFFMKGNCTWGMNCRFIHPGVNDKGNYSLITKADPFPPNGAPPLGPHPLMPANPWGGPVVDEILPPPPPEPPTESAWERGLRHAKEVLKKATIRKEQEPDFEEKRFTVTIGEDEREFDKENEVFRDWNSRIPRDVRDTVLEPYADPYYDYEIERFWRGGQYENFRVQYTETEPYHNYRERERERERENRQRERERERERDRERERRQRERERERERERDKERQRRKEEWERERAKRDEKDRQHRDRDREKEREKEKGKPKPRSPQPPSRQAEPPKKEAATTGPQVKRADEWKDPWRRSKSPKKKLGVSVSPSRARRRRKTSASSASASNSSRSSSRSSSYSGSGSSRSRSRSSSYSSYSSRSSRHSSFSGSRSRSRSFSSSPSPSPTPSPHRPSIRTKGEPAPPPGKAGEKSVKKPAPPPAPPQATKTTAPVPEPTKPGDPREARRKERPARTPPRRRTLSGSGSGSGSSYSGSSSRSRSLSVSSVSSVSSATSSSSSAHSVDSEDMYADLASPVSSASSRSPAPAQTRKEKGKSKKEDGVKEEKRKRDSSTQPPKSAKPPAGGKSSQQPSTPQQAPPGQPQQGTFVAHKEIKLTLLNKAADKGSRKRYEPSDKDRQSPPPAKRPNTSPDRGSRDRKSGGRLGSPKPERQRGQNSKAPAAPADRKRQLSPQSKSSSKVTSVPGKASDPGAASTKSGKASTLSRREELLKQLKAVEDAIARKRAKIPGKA
UniProt Q7Z4H3: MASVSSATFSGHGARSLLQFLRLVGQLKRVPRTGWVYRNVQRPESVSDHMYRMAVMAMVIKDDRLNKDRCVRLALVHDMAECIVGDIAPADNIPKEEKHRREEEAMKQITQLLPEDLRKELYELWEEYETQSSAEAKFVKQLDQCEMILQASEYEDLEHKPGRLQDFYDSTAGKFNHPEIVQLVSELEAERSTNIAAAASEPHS
UniProt Q7L273: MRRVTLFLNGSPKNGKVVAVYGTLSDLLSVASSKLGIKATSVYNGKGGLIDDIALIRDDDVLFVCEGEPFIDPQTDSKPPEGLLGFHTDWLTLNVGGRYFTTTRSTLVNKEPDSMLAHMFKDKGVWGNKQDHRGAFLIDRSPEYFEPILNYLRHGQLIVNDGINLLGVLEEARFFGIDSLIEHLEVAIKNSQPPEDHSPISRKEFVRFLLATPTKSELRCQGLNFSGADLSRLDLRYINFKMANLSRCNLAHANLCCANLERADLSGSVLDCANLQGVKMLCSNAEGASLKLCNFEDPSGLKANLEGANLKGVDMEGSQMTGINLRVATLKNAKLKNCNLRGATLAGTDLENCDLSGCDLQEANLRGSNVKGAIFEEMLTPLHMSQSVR
UniProt Q86TM3: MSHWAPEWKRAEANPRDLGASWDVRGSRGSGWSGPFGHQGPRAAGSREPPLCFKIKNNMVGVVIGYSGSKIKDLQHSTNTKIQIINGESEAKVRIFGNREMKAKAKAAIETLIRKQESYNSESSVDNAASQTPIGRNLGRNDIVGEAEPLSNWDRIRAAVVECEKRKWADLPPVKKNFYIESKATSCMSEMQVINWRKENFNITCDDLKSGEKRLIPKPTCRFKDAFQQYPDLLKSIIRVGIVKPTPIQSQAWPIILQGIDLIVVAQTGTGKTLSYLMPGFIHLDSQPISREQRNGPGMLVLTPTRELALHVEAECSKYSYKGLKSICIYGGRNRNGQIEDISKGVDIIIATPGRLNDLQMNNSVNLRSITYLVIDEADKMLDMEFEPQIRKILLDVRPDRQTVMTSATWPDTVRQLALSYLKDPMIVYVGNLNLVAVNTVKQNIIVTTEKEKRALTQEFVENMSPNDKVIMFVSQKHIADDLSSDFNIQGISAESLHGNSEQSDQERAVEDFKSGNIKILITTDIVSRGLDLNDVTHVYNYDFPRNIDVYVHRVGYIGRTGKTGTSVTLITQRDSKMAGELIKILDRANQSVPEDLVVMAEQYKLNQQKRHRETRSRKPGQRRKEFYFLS
UniProt Q7RTN6: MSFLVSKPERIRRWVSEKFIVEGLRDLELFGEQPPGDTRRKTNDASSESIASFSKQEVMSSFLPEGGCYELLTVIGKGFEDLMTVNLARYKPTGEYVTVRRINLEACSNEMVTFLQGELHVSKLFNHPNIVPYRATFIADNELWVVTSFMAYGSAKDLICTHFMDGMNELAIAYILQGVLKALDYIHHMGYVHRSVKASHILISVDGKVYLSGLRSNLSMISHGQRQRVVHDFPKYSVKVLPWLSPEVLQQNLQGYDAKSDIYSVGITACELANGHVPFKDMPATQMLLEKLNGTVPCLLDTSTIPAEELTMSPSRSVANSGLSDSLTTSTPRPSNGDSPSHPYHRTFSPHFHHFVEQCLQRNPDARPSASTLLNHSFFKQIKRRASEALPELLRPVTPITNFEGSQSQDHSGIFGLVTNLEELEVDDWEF
UniProt Q6ZNX1: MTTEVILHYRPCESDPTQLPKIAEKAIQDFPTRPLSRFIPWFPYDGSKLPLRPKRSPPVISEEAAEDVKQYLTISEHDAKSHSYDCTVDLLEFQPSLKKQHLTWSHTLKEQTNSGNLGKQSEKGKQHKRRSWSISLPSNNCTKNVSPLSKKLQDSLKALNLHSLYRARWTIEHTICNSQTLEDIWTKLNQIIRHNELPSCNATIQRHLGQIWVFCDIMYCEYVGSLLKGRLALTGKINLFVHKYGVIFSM
UniProt Q86US8: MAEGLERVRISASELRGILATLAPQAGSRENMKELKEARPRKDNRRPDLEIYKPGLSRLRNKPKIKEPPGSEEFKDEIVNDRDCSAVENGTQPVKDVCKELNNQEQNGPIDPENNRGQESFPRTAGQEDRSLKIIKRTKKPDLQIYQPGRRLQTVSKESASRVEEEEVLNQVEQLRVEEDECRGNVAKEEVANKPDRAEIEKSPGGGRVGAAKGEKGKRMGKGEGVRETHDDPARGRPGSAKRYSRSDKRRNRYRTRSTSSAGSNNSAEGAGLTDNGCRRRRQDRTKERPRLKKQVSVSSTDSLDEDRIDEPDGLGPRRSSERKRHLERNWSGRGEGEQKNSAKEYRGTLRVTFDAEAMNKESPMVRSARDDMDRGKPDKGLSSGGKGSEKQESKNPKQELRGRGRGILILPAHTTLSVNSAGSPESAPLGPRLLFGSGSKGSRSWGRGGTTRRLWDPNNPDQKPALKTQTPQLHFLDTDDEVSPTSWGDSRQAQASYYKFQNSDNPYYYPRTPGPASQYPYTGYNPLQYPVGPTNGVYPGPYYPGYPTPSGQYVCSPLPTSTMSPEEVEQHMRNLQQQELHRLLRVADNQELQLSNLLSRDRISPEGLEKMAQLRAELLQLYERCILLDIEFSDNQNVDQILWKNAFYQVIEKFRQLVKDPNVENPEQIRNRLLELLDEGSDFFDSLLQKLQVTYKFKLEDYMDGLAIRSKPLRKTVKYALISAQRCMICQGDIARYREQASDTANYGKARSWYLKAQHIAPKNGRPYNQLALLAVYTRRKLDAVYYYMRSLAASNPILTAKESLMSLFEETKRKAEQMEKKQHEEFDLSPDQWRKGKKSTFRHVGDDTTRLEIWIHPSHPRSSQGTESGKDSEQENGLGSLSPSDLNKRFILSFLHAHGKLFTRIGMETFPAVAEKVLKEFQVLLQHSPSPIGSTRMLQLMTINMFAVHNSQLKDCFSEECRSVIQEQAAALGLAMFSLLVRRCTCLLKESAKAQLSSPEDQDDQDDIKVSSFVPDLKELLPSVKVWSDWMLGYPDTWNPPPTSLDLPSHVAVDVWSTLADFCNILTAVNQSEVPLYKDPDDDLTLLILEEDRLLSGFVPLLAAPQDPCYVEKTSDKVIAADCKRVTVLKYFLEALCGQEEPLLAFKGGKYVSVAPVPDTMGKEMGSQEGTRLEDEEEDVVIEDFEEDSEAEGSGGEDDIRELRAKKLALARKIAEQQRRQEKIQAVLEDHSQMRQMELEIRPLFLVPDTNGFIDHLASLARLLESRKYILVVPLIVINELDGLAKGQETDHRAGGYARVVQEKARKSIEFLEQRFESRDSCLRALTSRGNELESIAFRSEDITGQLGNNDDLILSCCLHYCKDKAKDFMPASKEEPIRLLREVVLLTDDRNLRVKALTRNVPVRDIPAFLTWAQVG
UniProt Q7Z3V4: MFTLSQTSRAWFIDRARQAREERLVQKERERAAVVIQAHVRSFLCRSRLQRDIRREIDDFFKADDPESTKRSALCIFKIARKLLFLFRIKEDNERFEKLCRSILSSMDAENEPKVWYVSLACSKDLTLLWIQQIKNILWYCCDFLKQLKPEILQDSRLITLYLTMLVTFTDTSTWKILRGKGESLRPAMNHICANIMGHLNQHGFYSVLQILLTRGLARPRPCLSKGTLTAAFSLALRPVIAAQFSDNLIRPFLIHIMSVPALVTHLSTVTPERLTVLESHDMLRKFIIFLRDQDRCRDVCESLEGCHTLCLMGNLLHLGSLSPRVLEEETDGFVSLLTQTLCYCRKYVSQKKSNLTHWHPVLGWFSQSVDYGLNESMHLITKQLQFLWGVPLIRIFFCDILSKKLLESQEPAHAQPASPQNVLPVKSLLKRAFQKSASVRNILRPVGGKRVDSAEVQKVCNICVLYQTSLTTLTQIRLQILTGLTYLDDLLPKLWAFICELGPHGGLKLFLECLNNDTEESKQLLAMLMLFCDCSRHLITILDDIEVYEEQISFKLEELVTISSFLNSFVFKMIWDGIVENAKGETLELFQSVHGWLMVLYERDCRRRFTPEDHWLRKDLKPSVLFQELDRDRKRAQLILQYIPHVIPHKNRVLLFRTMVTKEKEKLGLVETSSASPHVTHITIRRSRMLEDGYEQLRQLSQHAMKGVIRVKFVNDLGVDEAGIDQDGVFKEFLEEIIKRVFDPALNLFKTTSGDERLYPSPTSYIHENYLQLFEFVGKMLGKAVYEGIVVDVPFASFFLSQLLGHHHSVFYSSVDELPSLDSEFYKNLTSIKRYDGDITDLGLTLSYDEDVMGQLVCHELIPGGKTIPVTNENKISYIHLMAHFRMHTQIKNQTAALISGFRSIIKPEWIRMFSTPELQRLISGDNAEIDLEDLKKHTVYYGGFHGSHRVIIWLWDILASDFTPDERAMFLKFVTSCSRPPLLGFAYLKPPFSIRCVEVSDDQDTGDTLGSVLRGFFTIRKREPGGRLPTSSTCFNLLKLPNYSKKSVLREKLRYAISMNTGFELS
UniProt Q7Z3K6: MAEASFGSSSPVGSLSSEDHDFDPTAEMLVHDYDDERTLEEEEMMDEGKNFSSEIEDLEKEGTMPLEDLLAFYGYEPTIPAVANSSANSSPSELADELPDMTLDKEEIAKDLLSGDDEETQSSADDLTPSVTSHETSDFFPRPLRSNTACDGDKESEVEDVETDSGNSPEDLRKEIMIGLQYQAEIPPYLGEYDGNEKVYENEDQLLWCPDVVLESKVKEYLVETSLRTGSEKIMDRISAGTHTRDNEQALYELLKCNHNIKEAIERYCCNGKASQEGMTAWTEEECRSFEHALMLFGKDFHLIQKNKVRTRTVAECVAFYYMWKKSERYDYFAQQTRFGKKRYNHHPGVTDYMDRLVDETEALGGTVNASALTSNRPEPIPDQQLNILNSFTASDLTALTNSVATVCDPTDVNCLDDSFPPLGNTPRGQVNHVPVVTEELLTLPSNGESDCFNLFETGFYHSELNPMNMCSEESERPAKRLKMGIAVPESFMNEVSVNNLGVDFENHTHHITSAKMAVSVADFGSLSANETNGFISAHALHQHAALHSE

Target | log2 fold change
BCL9L (peptide sequence: SVSVDSGEQR, peptide start residue: 116) (UniProt Q86UU0) | 0.229
UniProt Q7L9L4 (peptide sequence: HAEATLGSGNLR, peptide start residue: 31) | 0.204
MEPCE (peptide sequence: AAPPDVGEER, peptide start residue: 107) (UniProt Q7L2J0) | -0.282
BCDIN3D (peptide sequence: LLCCDIDPVLVKR, peptide start residue: 106) (UniProt Q7Z5W3) | 0.28
MRPL52 (peptide sequence: QENALKPK, peptide start residue: 105) (UniProt Q86TS9) | 0.185
UniProt Q7Z6M4 (peptide sequence: CLFTVQQVTK, peptide start residue: 205) | 0.0648
ZC3H18 (peptide sequence: RFTVTIGEDER, peptide start residue: 329) (UniProt Q86VM9) | -0.383
MON1A (peptide sequence: SYEDLTESEDGAASGDSHK, peptide start residue: 153) (UniProt Q86VX9) | -0.31
GLCCI1 (peptide sequence: RSPESHR, peptide start residue: 130) (UniProt Q86VQ1) | -0.115
CDC37L1 (peptide sequence: EKMCLWSTDAISK, peptide start residue: 121) (UniProt Q7L3B6) | -0.57
USP48 (peptide sequence: LFMSLLEDTLSKQK, peptide start residue: 188) (UniProt Q86UV5) | -0.979
HDDC2 (peptide sequence: MAVMAMVIKDDRLNK, peptide start residue: 53) (UniProt Q7Z4H3) | 0.231
UniProt Q7L0Y3 (peptide sequence: YLYTKEK, peptide start residue: 135) | 0.643
RINL (peptide sequence: SGPLPGEVNTYQIQKIPR, peptide start residue: 87) (UniProt Q6ZS11) | 0.458
RUFY3 (peptide sequence: MNLMNMAK, peptide start residue: 70) (UniProt Q7L099) | 0.237
YANK3 (peptide sequence: SQDLPREPLPAPESR, peptide start residue: 444) (UniProt Q86UX6) | -0.644
FERMT3 (peptide sequence: LTQLYEQAR, peptide start residue: 268) (UniProt Q86UX7) | 0.225
KCTD9 (peptide sequence: ANLEGANLK, peptide start residue: 303) (UniProt Q7L273) | -0.0842
UniProt Q86TM3 (peptide sequence: IQIINGESEAK, peptide start residue: 82) | 0.152
RTL10 (peptide sequence: STASGTCGGKPAER, peptide start residue: 66) (UniProt Q7L3V2) | -0.398
STRADA (peptide sequence: SNLSMISHGQR, peptide start residue: 216) (UniProt Q7RTN6) | -0.311
UniProt Q6ZNX1 (peptide sequence: AIQDFPTRPLSR, peptide start residue: 26) | 0.335
SMG6 (peptide sequence: GNVAKEEVANKPDR, peptide start residue: 184) (UniProt Q86US8) | 0.47
DDX46 (peptide sequence: MIDMLAANSGR, peptide start residue: 506) (UniProt Q7L014) | 0.167
UBE3B (peptide sequence: VFDPALNLFK, peptide start residue: 742) (UniProt Q7Z3V4) | -0.207
MIER3 (peptide sequence: VKEYLVETSLR, peptide start residue: 218) (UniProt Q7Z3K6) | -0.11

Shown tab-delimited: entries from further up.
Target	log2 fold change
UniProt Q7Z6M4 (peptide sequence: CLFTVQQVTK, peptide start residue: 205)	0.0648
USP48 (peptide sequence: LFMSLLEDTLSKQK, peptide start residue: 188) (UniProt Q86UV5)	-0.979
UniProt Q7L0Y3 (peptide sequence: YLYTKEK, peptide start residue: 135)	0.643
RINL (peptide sequence: SGPLPGEVNTYQIQKIPR, peptide start residue: 87) (UniProt Q6ZS11)	0.458
KCTD9 (peptide sequence: ANLEGANLK, peptide start residue: 303) (UniProt Q7L273)	-0.0842
SMG6 (peptide sequence: GNVAKEEVANKPDR, peptide start residue: 184) (UniProt Q86US8)	0.47

Reference: the supplement of paper PMC12819154, “High-throughput peptide-centric local stability assay extends protein–ligand identification to membrane proteins, tissues and bacteria” (Nature Structural & Molecular Biology, 2025)
